No constants are given. Whether binding was seen depends on the method and setting. Binding seen in cells or lysates may run through a third protein. Some results given as binding are weak or reduced against the parent protein; the word gives no strength.
Experiments:
[1] = biological target: p110α catalytic subunit of PI3K, mouse heart (mouse (endogenous in adult mouse heart tissue)) (UniProt P42337); assay: co-IP; adult mouse heart tissue solubilised in 1% Triton X-100 lysis buffer (25 mM Tris/HCl pH 7.4, 150 mM NaCl, 0.5 mM EDTA), antibody overnight at 4°C, protein A magnetic beads, three washes; endogenous proteins; Western blot
[2] = biological target: p110α catalytic subunit of PI3K, neonatal rat cardiomyocytes (rat (endogenous in NRCM)); assay: co-IP; NRCM solubilised in 1% Triton X-100 lysis buffer (25 mM Tris/HCl pH 7.4, 150 mM NaCl, 0.5 mM EDTA), antibody overnight at 4°C, protein A magnetic beads, three washes; endogenous proteins; Western blot

Amino acid sequences for entries named in this document (tags omitted).
UniProt P42337: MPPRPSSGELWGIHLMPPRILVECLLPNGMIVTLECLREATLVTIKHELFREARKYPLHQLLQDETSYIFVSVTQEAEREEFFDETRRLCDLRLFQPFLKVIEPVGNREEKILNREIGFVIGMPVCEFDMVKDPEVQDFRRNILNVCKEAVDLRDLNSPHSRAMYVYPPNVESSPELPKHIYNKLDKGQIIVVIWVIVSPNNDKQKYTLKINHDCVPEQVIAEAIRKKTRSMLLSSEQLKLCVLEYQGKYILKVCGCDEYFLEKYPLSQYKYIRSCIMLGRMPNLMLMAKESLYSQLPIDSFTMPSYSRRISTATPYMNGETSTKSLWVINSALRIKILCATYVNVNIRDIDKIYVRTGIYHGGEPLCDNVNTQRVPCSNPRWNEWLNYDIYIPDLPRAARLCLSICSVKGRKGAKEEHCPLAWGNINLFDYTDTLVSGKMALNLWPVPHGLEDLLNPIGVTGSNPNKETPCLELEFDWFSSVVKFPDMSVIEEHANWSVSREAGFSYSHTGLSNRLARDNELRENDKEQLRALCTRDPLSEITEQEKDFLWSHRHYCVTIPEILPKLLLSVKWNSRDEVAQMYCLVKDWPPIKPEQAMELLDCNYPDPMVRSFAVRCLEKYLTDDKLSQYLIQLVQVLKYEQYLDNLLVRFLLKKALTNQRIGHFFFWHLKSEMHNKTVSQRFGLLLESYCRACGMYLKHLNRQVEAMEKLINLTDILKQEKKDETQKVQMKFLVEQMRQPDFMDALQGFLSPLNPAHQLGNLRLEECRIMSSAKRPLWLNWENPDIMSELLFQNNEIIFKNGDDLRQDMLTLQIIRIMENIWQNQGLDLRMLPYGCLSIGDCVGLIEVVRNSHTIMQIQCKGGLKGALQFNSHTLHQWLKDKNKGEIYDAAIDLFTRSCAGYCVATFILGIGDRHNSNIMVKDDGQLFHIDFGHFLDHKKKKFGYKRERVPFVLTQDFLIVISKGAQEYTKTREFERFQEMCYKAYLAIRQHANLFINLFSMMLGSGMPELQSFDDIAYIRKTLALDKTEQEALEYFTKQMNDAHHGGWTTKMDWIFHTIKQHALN

binding [1]	binding [2]	Molecule
binds	–	PI3K interacting protein1 (Pik3ip1), mouse heart (from UniProt Q7TMJ8 22-264)
–	binds	PI3K interacting protein1 (Pik3ip1), neonatal rat cardiomyocytes (protein, UniProt Q56A20 22-267) SGGCFWDNGHLYREDQPSPAPGLRCLNWLAAQGSGESLAQPSPGNHNYCRNPDQDPRGPWCYISSETGVPEKRPCEDLRCPETTSQAPPPPPPSSTTELEEKFGVPGDKETQVFPPANALPARSEAAEVQPVIGISQRVRMNSKEKKDLGTLGYVLGVTMTVIIIAIGVGIVLGYTYKRGKDLKEQHEQKVCEREMQRITLPLSAFTNPTCEIMDEKTIIVHSNQTPADVQEGSTLLTDQAGTPGA

— paper PMC4380398
